# Reference: the supplement of paper PMC12067093, “Discovery and optimisation of a covalent ligand for TRIM25 and its application to targeted protein ubiquitination” (Chemical Science, 2025)
# Chains of the proteins cited; added tags and fusions are not shown. Lines headed by an entry give the natural chain unless they say otherwise; changes in a name come on top.
# UniProt Q9BXP5: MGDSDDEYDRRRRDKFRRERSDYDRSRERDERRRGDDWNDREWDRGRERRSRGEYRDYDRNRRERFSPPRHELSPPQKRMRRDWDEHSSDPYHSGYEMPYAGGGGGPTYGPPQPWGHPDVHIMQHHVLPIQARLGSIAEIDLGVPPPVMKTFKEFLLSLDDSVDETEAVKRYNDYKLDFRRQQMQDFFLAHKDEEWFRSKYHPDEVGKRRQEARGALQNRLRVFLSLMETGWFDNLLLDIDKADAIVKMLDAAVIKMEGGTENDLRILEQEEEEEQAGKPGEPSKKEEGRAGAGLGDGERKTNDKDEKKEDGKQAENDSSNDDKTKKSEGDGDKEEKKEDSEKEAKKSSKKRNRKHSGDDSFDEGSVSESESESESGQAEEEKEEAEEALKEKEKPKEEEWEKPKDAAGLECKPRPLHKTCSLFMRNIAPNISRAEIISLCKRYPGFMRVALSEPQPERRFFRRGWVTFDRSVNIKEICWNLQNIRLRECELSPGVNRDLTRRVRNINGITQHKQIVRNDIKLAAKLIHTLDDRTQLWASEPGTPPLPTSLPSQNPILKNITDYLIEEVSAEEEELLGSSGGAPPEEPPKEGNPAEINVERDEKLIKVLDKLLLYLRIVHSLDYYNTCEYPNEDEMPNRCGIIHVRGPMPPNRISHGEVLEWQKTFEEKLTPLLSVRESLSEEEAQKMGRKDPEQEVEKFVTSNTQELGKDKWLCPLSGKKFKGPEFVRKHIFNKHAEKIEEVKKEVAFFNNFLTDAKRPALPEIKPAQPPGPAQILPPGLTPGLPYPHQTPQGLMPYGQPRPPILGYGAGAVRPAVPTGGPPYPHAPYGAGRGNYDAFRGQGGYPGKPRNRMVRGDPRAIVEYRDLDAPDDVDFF
# UniProt Q15022: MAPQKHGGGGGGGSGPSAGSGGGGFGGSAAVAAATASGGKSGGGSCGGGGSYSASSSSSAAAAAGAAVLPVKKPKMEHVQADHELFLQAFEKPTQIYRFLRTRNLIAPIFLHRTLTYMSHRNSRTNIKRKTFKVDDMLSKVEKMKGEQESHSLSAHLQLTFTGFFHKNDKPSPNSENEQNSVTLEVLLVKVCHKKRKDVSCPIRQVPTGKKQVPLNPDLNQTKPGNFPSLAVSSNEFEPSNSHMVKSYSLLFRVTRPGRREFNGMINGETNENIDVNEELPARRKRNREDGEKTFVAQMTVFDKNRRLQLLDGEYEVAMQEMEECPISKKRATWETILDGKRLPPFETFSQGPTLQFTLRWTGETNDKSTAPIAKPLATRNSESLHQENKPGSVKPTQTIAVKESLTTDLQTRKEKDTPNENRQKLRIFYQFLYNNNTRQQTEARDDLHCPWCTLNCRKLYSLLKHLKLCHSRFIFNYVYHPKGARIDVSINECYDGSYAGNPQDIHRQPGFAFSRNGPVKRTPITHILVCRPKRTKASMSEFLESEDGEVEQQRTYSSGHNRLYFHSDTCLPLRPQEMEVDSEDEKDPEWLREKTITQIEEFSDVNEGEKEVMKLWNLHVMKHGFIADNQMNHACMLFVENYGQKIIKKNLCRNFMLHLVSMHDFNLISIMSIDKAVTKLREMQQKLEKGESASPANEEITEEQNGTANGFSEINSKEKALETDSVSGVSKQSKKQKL
# UniProt Q11201: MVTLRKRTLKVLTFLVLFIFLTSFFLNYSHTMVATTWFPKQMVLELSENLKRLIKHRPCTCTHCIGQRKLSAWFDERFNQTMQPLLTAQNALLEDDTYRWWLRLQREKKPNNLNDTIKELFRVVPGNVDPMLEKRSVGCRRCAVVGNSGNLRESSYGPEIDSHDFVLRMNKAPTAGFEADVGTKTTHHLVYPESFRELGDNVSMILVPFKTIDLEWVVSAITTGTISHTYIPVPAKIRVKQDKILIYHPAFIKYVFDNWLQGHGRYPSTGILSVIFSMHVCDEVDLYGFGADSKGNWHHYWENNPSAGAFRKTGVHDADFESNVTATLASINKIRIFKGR
# UniProt Q9NRL3: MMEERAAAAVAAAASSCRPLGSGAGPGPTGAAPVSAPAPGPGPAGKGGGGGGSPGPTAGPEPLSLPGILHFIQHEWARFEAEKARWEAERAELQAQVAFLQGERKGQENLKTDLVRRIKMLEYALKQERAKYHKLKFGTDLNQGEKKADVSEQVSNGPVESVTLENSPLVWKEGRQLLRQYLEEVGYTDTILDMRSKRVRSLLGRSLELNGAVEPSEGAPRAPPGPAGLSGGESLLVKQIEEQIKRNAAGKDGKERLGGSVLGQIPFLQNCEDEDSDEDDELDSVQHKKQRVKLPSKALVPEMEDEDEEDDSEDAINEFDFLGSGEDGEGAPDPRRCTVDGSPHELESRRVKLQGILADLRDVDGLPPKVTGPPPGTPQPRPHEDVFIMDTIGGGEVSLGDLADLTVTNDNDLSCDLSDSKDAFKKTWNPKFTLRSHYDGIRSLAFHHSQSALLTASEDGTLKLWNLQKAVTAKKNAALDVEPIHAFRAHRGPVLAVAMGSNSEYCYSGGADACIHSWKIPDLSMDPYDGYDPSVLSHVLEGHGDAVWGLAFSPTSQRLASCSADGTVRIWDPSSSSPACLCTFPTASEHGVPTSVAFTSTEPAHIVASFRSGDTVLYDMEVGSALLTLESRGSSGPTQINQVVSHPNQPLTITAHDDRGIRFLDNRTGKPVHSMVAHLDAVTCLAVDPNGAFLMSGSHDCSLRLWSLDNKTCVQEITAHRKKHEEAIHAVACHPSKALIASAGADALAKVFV
# UniProt O95425, whole entry, looked up: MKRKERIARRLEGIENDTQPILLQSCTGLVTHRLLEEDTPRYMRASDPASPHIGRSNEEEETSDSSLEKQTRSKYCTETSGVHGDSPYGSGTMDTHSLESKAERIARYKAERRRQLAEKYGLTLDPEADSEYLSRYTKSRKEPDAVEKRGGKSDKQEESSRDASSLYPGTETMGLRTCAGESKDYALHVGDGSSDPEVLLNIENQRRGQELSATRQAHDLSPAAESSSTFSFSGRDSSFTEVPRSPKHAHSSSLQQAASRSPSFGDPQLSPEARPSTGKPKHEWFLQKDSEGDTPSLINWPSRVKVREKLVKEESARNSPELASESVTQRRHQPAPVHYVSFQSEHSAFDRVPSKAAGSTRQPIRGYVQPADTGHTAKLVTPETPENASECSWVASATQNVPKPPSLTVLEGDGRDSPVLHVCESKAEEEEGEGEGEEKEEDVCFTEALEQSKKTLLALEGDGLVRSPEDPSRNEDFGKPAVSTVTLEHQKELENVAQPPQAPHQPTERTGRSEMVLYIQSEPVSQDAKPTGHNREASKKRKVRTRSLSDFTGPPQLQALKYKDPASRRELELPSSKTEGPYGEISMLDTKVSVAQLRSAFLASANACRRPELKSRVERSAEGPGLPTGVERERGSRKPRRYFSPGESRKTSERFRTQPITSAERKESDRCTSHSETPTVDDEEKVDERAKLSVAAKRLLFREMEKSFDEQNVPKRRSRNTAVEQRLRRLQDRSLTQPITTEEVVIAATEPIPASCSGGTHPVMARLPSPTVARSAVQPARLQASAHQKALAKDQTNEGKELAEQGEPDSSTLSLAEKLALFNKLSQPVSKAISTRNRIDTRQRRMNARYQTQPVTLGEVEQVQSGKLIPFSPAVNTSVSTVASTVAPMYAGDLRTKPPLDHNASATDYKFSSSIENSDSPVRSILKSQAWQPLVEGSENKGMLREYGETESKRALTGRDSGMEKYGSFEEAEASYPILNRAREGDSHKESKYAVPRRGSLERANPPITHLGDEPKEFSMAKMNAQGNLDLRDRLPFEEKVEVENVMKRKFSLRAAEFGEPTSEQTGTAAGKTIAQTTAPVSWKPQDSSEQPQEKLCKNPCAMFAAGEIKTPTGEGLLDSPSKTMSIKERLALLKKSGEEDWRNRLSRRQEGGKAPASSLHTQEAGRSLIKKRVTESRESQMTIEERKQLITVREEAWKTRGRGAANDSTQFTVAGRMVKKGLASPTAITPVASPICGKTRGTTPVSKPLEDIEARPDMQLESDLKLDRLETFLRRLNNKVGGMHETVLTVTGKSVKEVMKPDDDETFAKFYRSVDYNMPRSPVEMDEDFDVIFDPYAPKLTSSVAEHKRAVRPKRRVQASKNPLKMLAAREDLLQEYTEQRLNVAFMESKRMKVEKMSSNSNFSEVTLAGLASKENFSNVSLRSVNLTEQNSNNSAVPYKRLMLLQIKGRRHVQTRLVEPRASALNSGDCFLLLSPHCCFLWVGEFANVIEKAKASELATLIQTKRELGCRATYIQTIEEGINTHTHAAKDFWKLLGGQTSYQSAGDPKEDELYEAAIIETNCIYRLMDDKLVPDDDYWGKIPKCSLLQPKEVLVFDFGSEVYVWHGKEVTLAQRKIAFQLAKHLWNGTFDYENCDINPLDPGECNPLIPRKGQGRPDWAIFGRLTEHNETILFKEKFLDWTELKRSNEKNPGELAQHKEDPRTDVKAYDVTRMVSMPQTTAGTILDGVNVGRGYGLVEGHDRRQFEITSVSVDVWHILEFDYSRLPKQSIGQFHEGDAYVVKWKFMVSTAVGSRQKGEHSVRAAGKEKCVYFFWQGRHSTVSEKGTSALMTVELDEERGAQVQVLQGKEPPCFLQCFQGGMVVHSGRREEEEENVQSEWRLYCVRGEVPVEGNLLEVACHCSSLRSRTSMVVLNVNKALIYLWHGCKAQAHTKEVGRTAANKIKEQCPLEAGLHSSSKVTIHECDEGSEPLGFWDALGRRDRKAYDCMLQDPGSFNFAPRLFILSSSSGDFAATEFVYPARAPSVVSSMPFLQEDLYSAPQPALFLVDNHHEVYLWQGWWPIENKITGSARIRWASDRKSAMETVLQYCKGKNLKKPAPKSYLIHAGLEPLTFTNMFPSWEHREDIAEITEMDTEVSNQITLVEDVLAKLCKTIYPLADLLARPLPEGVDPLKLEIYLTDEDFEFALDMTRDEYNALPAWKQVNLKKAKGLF
# UniProt P42224: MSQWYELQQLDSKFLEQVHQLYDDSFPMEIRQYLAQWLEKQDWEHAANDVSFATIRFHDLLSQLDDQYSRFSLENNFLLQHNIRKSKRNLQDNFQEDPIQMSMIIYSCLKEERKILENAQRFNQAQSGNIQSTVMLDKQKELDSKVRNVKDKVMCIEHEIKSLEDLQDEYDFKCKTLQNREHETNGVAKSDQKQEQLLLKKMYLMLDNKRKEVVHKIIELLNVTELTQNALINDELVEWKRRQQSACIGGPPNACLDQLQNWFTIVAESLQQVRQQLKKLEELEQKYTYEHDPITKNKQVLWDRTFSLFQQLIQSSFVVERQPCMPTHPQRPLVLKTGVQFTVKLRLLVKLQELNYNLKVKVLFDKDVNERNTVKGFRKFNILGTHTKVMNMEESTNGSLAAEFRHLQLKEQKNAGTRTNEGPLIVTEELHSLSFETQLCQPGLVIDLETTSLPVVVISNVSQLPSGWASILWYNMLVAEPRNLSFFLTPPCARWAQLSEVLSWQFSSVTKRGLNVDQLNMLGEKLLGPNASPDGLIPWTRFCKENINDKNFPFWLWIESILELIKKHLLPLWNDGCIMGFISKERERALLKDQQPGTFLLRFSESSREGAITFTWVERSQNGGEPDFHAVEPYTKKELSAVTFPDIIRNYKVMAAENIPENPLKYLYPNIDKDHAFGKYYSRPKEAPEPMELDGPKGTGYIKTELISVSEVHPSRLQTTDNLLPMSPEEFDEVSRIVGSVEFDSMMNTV
# UniProt Q15208: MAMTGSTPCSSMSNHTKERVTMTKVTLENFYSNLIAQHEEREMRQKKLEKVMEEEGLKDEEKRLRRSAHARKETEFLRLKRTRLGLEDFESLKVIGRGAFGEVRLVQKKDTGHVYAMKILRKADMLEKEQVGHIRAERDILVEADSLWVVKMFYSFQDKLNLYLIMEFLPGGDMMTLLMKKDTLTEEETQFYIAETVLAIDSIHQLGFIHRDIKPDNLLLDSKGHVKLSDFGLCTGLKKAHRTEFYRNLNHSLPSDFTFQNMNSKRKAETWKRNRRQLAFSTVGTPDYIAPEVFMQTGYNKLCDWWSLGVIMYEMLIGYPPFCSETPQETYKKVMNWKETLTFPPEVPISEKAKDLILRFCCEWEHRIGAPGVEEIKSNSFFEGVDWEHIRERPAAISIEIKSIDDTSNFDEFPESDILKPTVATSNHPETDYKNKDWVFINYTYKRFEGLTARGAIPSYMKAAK
# UniProt Q9BWG4: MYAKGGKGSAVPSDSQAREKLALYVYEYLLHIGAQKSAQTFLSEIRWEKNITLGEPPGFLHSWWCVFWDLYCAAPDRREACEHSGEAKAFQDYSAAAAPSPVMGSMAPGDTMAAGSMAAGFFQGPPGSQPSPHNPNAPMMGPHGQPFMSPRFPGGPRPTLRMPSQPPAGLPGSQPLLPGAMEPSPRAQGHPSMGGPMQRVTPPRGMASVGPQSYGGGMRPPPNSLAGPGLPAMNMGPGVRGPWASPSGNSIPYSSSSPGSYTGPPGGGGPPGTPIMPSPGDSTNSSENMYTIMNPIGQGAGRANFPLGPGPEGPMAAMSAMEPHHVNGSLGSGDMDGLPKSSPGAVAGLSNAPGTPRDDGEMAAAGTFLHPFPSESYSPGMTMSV
# The other results are listed elsewhere or left out.
# Compound: CC1Cc2ccccc2N1C(=O)C1CCCN(C1)C(=O)CCl (mixture of isomers) [TRIM25 ligand 11 (diastereomer mixture)]
# Assay: probe-labelled cysteine peptide fold change vs DMSO (competition) (log2 fold change); higher = less target engagement (more negative = stronger competition)
# Settings: 10 µM; THP-1; incubation time: 4 h
# 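Further: competitive chemoproteomic profiling in live THP-1 cells with an iodoacetamide desthiobiotin (IA-DTB) probe, comparing probe-labelled peptide intensities in compound-treated cells against DMSO-treated controls.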
row,Target,probe-labelled cysteine peptide fold change
1,STIP1_P31948_339_CQQAEK (UniProt P31948),-0.0538
2,SRRT_Q9BXP5_715_WLCPLSGKK (UniProt Q9BXP5),-0.351
3,STK11IP_Q8N1F8_707+710_TESPAVCPNCGSDHVVLLAVSR (UniProt Q8N1F8),0.00361
4,SUZ12_Q15022_531_RTPITHILVCRPK (UniProt Q15022),-0.127
5,STAT2_P52630_676_DEAFGCYYQEK (UniProt P52630),0.0997
6,ST3GAL1_Q11201_59_HRPCTCTHCIGQR (UniProt Q11201),-0.00263
7,STK32C_Q86UX6_379_LHCDPTFELEEMILESRPLHK (UniProt Q86UX6),0.0194
8,STRN4_Q9NRL3_337_CTVDGSPHELESR (UniProt Q9NRL3),-0.0727
9,SSRP1_Q08945_340_ITVPGNFQGHSGAQCITCSYK (UniProt Q08945),0.0436
10,SSRP1_Q08945_207_ELQCLTPR (UniProt Q08945),0.0671
11,SVIL_O95425_671_CTSHSETPTVDDEEK (UniProt O95425),0.197
12,STK24_Q9Y6E0_394_SQACGGNLGSIEELR (UniProt Q9Y6E0),-0.0894
13,STAT1_P42224_108_NLQDNFQEDPIQMSMIIYSCLK (UniProt P42224),-0.0932
14,STK38_Q15208_9_AMTGSTPCSSMSNHTK (UniProt Q15208),0.2
15,SUZ12_Q15022_325_LQLLDGEYEVAMQEMEECPISK (UniProt Q15022),-0.0543
16,SSBP4_Q9BWG4_81_EACEHSGEAK (UniProt Q9BWG4),-0.257
17,SRPRB_Q9Y5M8_73_AVLLVGLCDSGK (UniProt Q9Y5M8),-0.133
18,STAT6_P42226_272_TLVTSCFLVEK (UniProt P42226),-0.00153
19,SUPT6H_Q7KZ85_1132_AELSCR (UniProt Q7KZ85),0.043
20,SRRT_Q9BXP5_640_CGIIHVR (UniProt Q9BXP5),-0.017
21,STXBP1_P61764_110_AAHVFFTDSCPDALFNELVK (UniProt P61764),0.349

# Same assay, conditions: 50 µM; THP-1; incubation time: 4 h
row,Target,probe-labelled cysteine peptide fold change
1,STAT2_P52630_71_ATMLFFHFLDQLNYECGR (UniProt P52630),-0.0509
2,STUB1_Q9UNE7_244_EPCITPSGITYDRK (UniProt Q9UNE7),-0.121
3,STARD7_Q9NQZ5_362_KNEGSCGPAR (UniProt Q9NQZ5),-0.224
4,STAU1_O95793_523_NEFVSLINCSSQPPLISHGIGK (UniProt O95793),-0.236
5,SUV39H1_O43463_30_LSCPALGISK (UniProt O43463),0.0241
6,SUPT6H_Q7KZ85_1021_TQLVTMCHMGPK (UniProt Q7KZ85),-0.0569
7,SUPV3L1_Q8IYB8_587_KQPFVCSSLLQFAR (UniProt Q8IYB8),-0.127
8,SSSCA1_O60232_125_EHQLASASELPLGSRPAPQPPVPRPEHCEGAAAGLK (UniProt O60232),-0.301
9,ST6GALNAC4_Q9H4F1_260_GRLDECQMYLAHEQAPR (UniProt Q9H4F1),-0.154
10,STXBP2_Q15833_365_LCSVEQDLAMGSDAEGEK (UniProt Q15833),-0.14
11,SWAP70_Q9UH65_261_KGDILLDENCCVESLPDK (UniProt Q9UH65),-0.114
12,STRN_O43815_765_CYIASAGADALAK (UniProt O43815),-0.0511
13,SRSF3_P84103_6_DSCPLDCK (UniProt P84103),-0.245
14,SRPRB_Q9Y5M8_246_VEFLECSAK (UniProt Q9Y5M8),-0.0286
15,STK39_Q9UEW8_525_LASGCDGSEIPDEVK (UniProt Q9UEW8),0.0755
16,SSSCA1_O60232_73_IYCVACQELDSDVDK (UniProt O60232),-0.2
17,STIP1_P31948_339_CQQAEK (UniProt P31948),0.205
18,SRRT_Q9BXP5_715_WLCPLSGKK (UniProt Q9BXP5),-0.204
19,STK11IP_Q8N1F8_707+710_TESPAVCPNCGSDHVVLLAVSR (UniProt Q8N1F8),0.158

row,Target,probe-labelled cysteine peptide fold change
1,SUZ12_Q15022_531_RTPITHILVCRPK (UniProt Q15022),-0.163
2,STAT2_P52630_676_DEAFGCYYQEK (UniProt P52630),-0.0436
3,ST3GAL1_Q11201_59_HRPCTCTHCIGQR (UniProt Q11201),0.0223
4,STK32C_Q86UX6_379_LHCDPTFELEEMILESRPLHK (UniProt Q86UX6),-0.102
5,STRN4_Q9NRL3_337_CTVDGSPHELESR (UniProt Q9NRL3),-0.206
6,SSRP1_Q08945_340_ITVPGNFQGHSGAQCITCSYK (UniProt Q08945),0.0922
7,SSRP1_Q08945_207_ELQCLTPR (UniProt Q08945),0.0936
8,SVIL_O95425_671_CTSHSETPTVDDEEK (UniProt O95425),0.0849
9,STK24_Q9Y6E0_394_SQACGGNLGSIEELR (UniProt Q9Y6E0),-0.159
10,STAT1_P42224_108_NLQDNFQEDPIQMSMIIYSCLK (UniProt P42224),0.0436
11,STK38_Q15208_9_AMTGSTPCSSMSNHTK (UniProt Q15208),-0.495
12,SUZ12_Q15022_325_LQLLDGEYEVAMQEMEECPISK (UniProt Q15022),-0.288
13,SSBP4_Q9BWG4_81_EACEHSGEAK (UniProt Q9BWG4),-0.344
14,SRPRB_Q9Y5M8_73_AVLLVGLCDSGK (UniProt Q9Y5M8),0.154
15,STAT6_P42226_272_TLVTSCFLVEK (UniProt P42226),0.102
16,SUPT6H_Q7KZ85_1132_AELSCR (UniProt Q7KZ85),0.0464
17,SRRT_Q9BXP5_640_CGIIHVR (UniProt Q9BXP5),0.144
18,STXBP1_P61764_110_AAHVFFTDSCPDALFNELVK (UniProt P61764),0.135
